Counter-ions that a name gives are not always drawn. ± gives the standard deviation of the averaged measurements. The list shows a part of the results. Repeats in this data set agree poorly, so a single value says little.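 The A. baumannii strains are clinical isolates chosen because they resist the partner antibiotic, and the screen looks for drugs that restore that antibiotic's effect. The reading at the start of incubation is subtracted to remove background from coloured compounds.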

The first experiment concerns Acinetobacter baumannii WP-487. The experiment can be described thus: percent growth inhibition of drug + antibiotic vs DMSO control; higher = more growth inhibition. Conditions: antibiotic (0.125x MIC): colistin; 7 µM. The protocol: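 Prestwick drugs tested at 20 uM and 7 uM with an antibiotic at 0.125x MIC (16 mg/L when MIC >128 mg/L) in cation-adjusted Mueller-Hinton broth, 384-well plates, duplicate runs on different days. Percent growth inhibition was computed from OD600 (24 h minus 0 h) relative to DMSO-only wells. Drug + 0.1% DMSO (no antibiotic) wells are also given. Only hits (max corrected inhibition > mean + 3SD) are listed. A. baumannii: NCTC-13301 was used for MEM/CIP/GEN/TGC and WP-487 for colistin. Duplicates with colistin are strongly discordant (run 2 near 100% for most drugs).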
`Clc1ccc(C(Cn2ccnc2)OCc2csc3c(Cl)cccc23)c(Cl)c1` (stereo not given) [Sertaconazole nitrate]: the percent growth inhibition was 60.9 ± 46%.
With `CN(C(=O)CN(CCO)CC(=O)N(C)C(C)(C)Cc1ccccc1)C(C)(C)Cc1ccccc1` [Oxethazaine], the percent growth inhibition was determined as 52.4 ± 55%.
Still for that read-out and setting: the value for `Cc1onc(-c2c(F)cccc2Cl)c1C(=O)N[C@@H]1C(=O)N2[C@@H]1SC(C)(C)[C@@H]2C(=O)O` [Flucloxacillin sodium] was 48.6 ± 56%; that for `O=C1NCCN1CCN1CCC(c2cn(-c3ccc(F)cc3)c3ccc(Cl)cc23)CC1` [Sertindole] was 51.3 ± 56%; that for `CN(C)CCCN1c2ccccc2Sc2ccc(Cl)cc21` [Chlorpromazine hydrochloride] was 16 ± 25%.
Still for that read-out and setting: the value for `Cc1cc(N)c2ccccc2[n+]1CCCCCCCCCC[n+]1c(C)cc(N)c2ccccc21` [Dequalinium dichloride] was 19.8 ± 7.6%; that for `CCCCc1cc2ccccc2c(OCCN(C)C)n1` [Dimethisoquin hydrochloride] was 7.54 ± 11%.
Regarding `Nc1ccc(S(=O)(=O)Nc2ccc(Cl)nn2)cc1` [Sulfachloropyridazine], the percent growth inhibition was -0.365 ± 12%.
Still for that read-out and setting: in the case of `Clc1ccccc1C(c1ccccc1)(c1ccccc1)n1ccnc1` [Clotrimazole] it was 52.5 ± 55%.
Still for that read-out and setting: in the case of `CCOC(=O)N1CCC(=C2c3ccc(Cl)cc3CCc3cccnc32)CC1` [Loratadine] it was -2.61 ± 5.2%.
The same measure, in the same setting: the value for `CN1CCC[C@@H]1CCO[C@](C)(c1ccccc1)c1ccc(Cl)cc1` [Clemastine fumarate] was 20.6 ± 19%; that for `CN(C)CCCN1c2ccccc2Sc2ccc(C(F)(F)F)cc21` [Triflupromazine hydrochloride] was 2.89 ± 5.7%.
Regarding `Cc1cccc(CN2CCN(C(c3ccccc3)c3ccc(Cl)cc3)CC2)c1` (stereo not given) [Meclozine dihydrochloride], the percent growth inhibition came out at 25 ± 30%.
The same measure, in the same setting: the value for `Nc1ccc(S(=O)(=O)Nc2ccccn2)cc1` [Sulfapyridine] was 6.28 ± 1%; that for `O=C1CCc2ccc(OCCCCN3CCN(c4cccc(Cl)c4Cl)CC3)cc2N1` [Aripiprazole] was 51.4 ± 56%.
Same read-out and setting: in the case of `COC(=O)[C@H]1[C@H]2C[C@@H]3c4[nH]c5cc(OC)ccc5c4CCN3C[C@H]2C[C@@H](OC(=O)c2cc(OC)c(OC)c(OC)c2)[C@@H]1OC` [Reserpine] it was -1.51 ± 1.4%; in that of `OCCN1CCN(CC/C=C2/c3ccccc3Sc3ccc(Cl)cc32)CC1` [Zuclopenthixol dihydrochloride], 51 ± 56%; in that of `CN[C@H](CC(C)C)C(=O)N[C@H]1C(=O)N[C@@H](CC(N)=O)C(=O)N[C@H]2C(=O)N[C@H]3C(=O)N[C@H](C(=O)N[C@H](C(=O)O)c4cc(O)cc(O)c4-c4cc3ccc4O)[C@H](O)c3ccc(c(Cl)c3)Oc3cc2cc(c3O[C@@H]2O[C@H](CO)[C@@H](O)[C@H](O)[C@H]2O[C@H]2C[C@](C)(N)[C@H](O)[C@H](C)O2)Oc2ccc(cc2Cl)[C@H]1O` [Vancomycin hydrochloride], -0.434 ± 6.5%.
On the same count and under the same terms, in the case of `CCN(CC)CCOc1ccc(C(=C(Cl)c2ccccc2)c2ccccc2)cc1` [Clomiphene citrate (Z,E)] it was 51 ± 57%; in that of `c1ccc(-c2ccc(C(c3ccccc3)n3ccnc3)cc2)cc1` (stereo not given) [Bifonazole], 55.1 ± 52%.

Still in this experiment, the particulars now being: antibiotic (0.125x MIC): colistin; 20 µM.
Consider `Clc1ccc(C(Cn2ccnc2)OCc2csc3c(Cl)cccc23)c(Cl)c1` (stereo not given) [Sertaconazole nitrate], for which the percent growth inhibition stood at 62.9 ± 44%.
Same read-out and setting: in the case of `CN(C(=O)CN(CCO)CC(=O)N(C)C(C)(C)Cc1ccccc1)C(C)(C)Cc1ccccc1` [Oxethazaine] it was 98.4 ± 1.9%; in that of `Cc1onc(-c2c(F)cccc2Cl)c1C(=O)N[C@@H]1C(=O)N2[C@@H]1SC(C)(C)[C@@H]2C(=O)O` [Flucloxacillin sodium], 50.1 ± 54%.
`O=C1NCCN1CCN1CCC(c2cn(-c3ccc(F)cc3)c3ccc(Cl)cc23)CC1` [Sertindole]: the percent growth inhibition is 57 ± 50%.
The same measure, in the same setting: the value for `CN(C)CCCN1c2ccccc2Sc2ccc(Cl)cc21` [Chlorpromazine hydrochloride] was 52.1 ± 68%; that for `Cc1cc(N)c2ccccc2[n+]1CCCCCCCCCC[n+]1c(C)cc(N)c2ccccc21` [Dequalinium dichloride] was 67.8 ± 46%.
Still for that read-out and setting: the value for `CCCCc1cc2ccccc2c(OCCN(C)C)n1` [Dimethisoquin hydrochloride] was 57.4 ± 60%.
`Nc1ccc(S(=O)(=O)Nc2ccc(Cl)nn2)cc1` [Sulfachloropyridazine]: the percent growth inhibition was found to be 46.6 ± 68%.
Turning to `Clc1ccccc1C(c1ccccc1)(c1ccccc1)n1ccnc1` [Clotrimazole], the percent growth inhibition stood at 52.7 ± 54%.
On the same count and under the same terms, the value for `CCOC(=O)N1CCC(=C2c3ccc(Cl)cc3CCc3cccnc32)CC1` [Loratadine] was 55.8 ± 63%; that for `CN1CCC[C@@H]1CCO[C@](C)(c1ccccc1)c1ccc(Cl)cc1` [Clemastine fumarate] was 56.4 ± 53%; that for `CN(C)CCCN1c2ccccc2Sc2ccc(C(F)(F)F)cc21` [Triflupromazine hydrochloride] was 58.8 ± 58%.
The same measure, in the same setting: in the case of `Cc1cccc(CN2CCN(C(c3ccccc3)c3ccc(Cl)cc3)CC2)c1` (stereo not given) [Meclozine dihydrochloride] it was 53.9 ± 65%; in that of `Nc1ccc(S(=O)(=O)Nc2ccccn2)cc1` [Sulfapyridine], 46.5 ± 69%; in that of `O=C1CCc2ccc(OCCCCN3CCN(c4cccc(Cl)c4Cl)CC3)cc2N1` [Aripiprazole], 59.3 ± 48%.
On the same count and under the same terms, in the case of `COC(=O)[C@H]1[C@H]2C[C@@H]3c4[nH]c5cc(OC)ccc5c4CCN3C[C@H]2C[C@@H](OC(=O)c2cc(OC)c(OC)c(OC)c2)[C@@H]1OC` [Reserpine] it was 50.4 ± 68%; in that of `OCCN1CCN(CC/C=C2/c3ccccc3Sc3ccc(Cl)cc32)CC1` [Zuclopenthixol dihydrochloride], 50.7 ± 57%; in that of `CN[C@H](CC(C)C)C(=O)N[C@H]1C(=O)N[C@@H](CC(N)=O)C(=O)N[C@H]2C(=O)N[C@H]3C(=O)N[C@H](C(=O)N[C@H](C(=O)O)c4cc(O)cc(O)c4-c4cc3ccc4O)[C@H](O)c3ccc(c(Cl)c3)Oc3cc2cc(c3O[C@@H]2O[C@H](CO)[C@@H](O)[C@H](O)[C@H]2O[C@H]2C[C@](C)(N)[C@H](O)[C@H](C)O2)Oc2ccc(cc2Cl)[C@H]1O` [Vancomycin hydrochloride], 53.9 ± 65%.
With `CCN(CC)CCOc1ccc(C(=C(Cl)c2ccccc2)c2ccccc2)cc1` [Clomiphene citrate (Z,E)], the percent growth inhibition is 60.5 ± 46%.
Take `c1ccc(-c2ccc(C(c3ccccc3)n3ccnc3)cc2)cc1` (stereo not given) [Bifonazole]: the percent growth inhibition turned out to be 64.1 ± 42%.

The values are drawn from the supplement of paper PMC6658780.
